Measurements reported in PubChem BioAssay AID1259308 (NCATS, 2017).
Here is an unselected part of about 59,000 deposited reagents. About 1,510 of them (2.6%) were called active. 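Calls use total luciferase alone and ignore viability, so some active siRNAs may act by altering cell number.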 The numbers tell different reagents against one gene apart.

- Screen: 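Candidate targets for better recombinant protein yield in mammalian cells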 (primary screen)
- Cell system: human HEK293 embryonic kidney cells stably expressing firefly luciferase (HEK-CMV-Luc2-Hygro)
- Knock-down reagent: single siRNA against human genes, 0.8 pmol siRNA per well
- Duration: 72 h
- Read-out: 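Reporter luminescence and viable-cell signal on separate replicate plates, given as percent of non-targeting control and median/MAD z-scores, plus per-cell luciferase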
- Reading the numbers: total luciferase, z-score and total luciferase, % of control: higher = more reporter protein produced; luciferase per cell, z-score: higher = more reporter output per viable cell; viable cells, % of control: higher = more viable cells
- Call rule: 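An siRNA counts as active if its total luciferase robust z-score exceeds 3; genes with two or more such siRNAs out of three were retested with fresh siRNAs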
- Calls: active = raised luciferase; inactive = no rise

| target gene | reagent | total luciferase, z-score | total luciferase, % of control | luciferase per cell, z-score | viable cells, % of control | outcome |
| --- | --- | --- | --- | --- | --- | --- |
| RANBP3 | 1 | -1.08 | 60.3 | -1.22 | 93.1 | inactive |
| RANBP3 | 2 | -1.31 | 55.8 | -0.609 | 73.2 | inactive |
| RANBP3 | 3 | 0.814 | 98.1 | 0.66 | 92.1 | inactive |
| PEX13 | 1 | 0.273 | 87.3 | 1.26 | 70.1 | inactive |
| PEX13 | 2 | 4.02 | 162 | 2.45 | 94.9 | active |
| PEX13 | 3 | -1.03 | 61.4 | -2.16 | 121 | inactive |
| IGFBP4 | 1 | 0.76 | 97 | 0.948 | 84.5 | inactive |
| IGFBP4 | 2 | 2.01 | 122 | 1.28 | 97.1 | inactive |
| IGFBP4 | 3 | -0.27 | 76.5 | -1.12 | 115 | inactive |
| HNRNPA1L2 | 1 | 0.85 | 98.8 | 0.597 | 94.3 | inactive |
| HNRNPA1L2 | 2 | 0.293 | 87.7 | 0.888 | 77.6 | inactive |
| HNRNPA1L2 | 3 | 2.59 | 133 | 2.28 | 81.7 | inactive |
| GAB3 | 1 | 0.893 | 99.6 | 0.142 | 107 | inactive |
| GAB3 | 2 | 1.15 | 105 | 0.994 | 90 | inactive |
| GAB3 | 3 | 1.14 | 105 | 1.21 | 85 | inactive |
| AANAT | 1 | 0.654 | 94.9 | 0.289 | 98.3 | inactive |
| AANAT | 2 | 0.648 | 94.8 | 0.191 | 101 | inactive |
| AANAT | 3 | 0.507 | 92 | 0.147 | 98.9 | inactive |
| SLC2A1 | 1 | -2.29 | 36.4 | -2.67 | 82.1 | inactive |
| SLC2A1 | 2 | -1.35 | 55.1 | -1.27 | 85.9 | inactive |
| SLC2A1 | 3 | 0.578 | 93.4 | 0.717 | 86.4 | inactive |
| THBS3 | 1 | 0.138 | 84.6 | -0.569 | 110 | inactive |
| THBS3 | 2 | 0.99 | 102 | 0.912 | 89.3 | inactive |
| THBS3 | 3 | -0.909 | 63.8 | -1.48 | 105 | inactive |
| TP53I3 | 1 | 1.57 | 113 | 1.9 | 76.7 | inactive |
| TP53I3 | 2 | 0.348 | 88.8 | 0.135 | 95.8 | inactive |
| TP53I3 | 3 | -0.403 | 73.9 | -0.23 | 87.7 | inactive |
| VWA5A | 1 | -1.11 | 59.7 | -1.56 | 101 | inactive |
| VWA5A | 2 | -1.46 | 52.8 | -1.06 | 78 | inactive |
| VWA5A | 3 | -0.304 | 75.8 | 0.0805 | 83 | inactive |
| BCO1 | 1 | -0.487 | 72.2 | -1.02 | 105 | inactive |
| BCO1 | 2 | 0.653 | 94.9 | 0.337 | 97 | inactive |
| BCO1 | 3 | 0.101 | 83.9 | -0.489 | 107 | inactive |
| PGBD4 | 1 | 0.381 | 89.5 | 0.4 | 90 | inactive |
| PGBD4 | 2 | -1.11 | 59.8 | -1.09 | 89 | inactive |
| PGBD4 | 3 | 1.11 | 104 | 0.455 | 103 | inactive |
| SUCLA2P1 | 1 | 0.551 | 92.8 | 1.07 | 78.2 | inactive |
| SUCLA2P1 | 2 | -1.2 | 58 | -1.19 | 88.7 | inactive |
| SUCLA2P1 | 3 | -0.93 | 63.4 | -0.844 | 88.5 | inactive |
| DCAF10 | 1 | 0.129 | 84.4 | 0.0232 | 93.8 | inactive |
| DCAF10 | 2 | -0.634 | 69.3 | -0.255 | 82.8 | inactive |
| DCAF10 | 3 | 0.262 | 87.1 | -0.738 | 118 | inactive |
| ZBTB38 | 1 | -1.38 | 54.4 | -1.75 | 96.4 | inactive |
| ZBTB38 | 2 | -0.556 | 70.8 | -0.257 | 84.7 | inactive |
| ZBTB38 | 3 | 0.871 | 99.2 | 0.946 | 86.4 | inactive |
| AHSA2P | 1 | -0.666 | 68.6 | -0.855 | 96 | inactive |
| AHSA2P | 2 | 1.82 | 118 | 2.12 | 75.5 | inactive |
| AHSA2P | 3 | -0.42 | 73.5 | -0.596 | 96.1 | inactive |
| SIL1 | 1 | 0.545 | 92.7 | 0.623 | 87.9 | inactive |
| SIL1 | 2 | -0.255 | 76.8 | -0.234 | 91.3 | inactive |
| SIL1 | 3 | 0.574 | 93.3 | 0.831 | 83.8 | inactive |
| SHISA2 | 1 | 1.16 | 105 | 0.503 | 103 | inactive |
| SHISA2 | 2 | 0.54 | 92.6 | 0.737 | 85.2 | inactive |
| SHISA2 | 3 | 0.113 | 84.1 | 0.168 | 89.9 | inactive |
| SPRYD7 | 1 | 2.3 | 128 | 1.73 | 90.4 | inactive |
| SPRYD7 | 2 | 2.07 | 123 | 1.34 | 96.6 | inactive |
| SPRYD7 | 3 | -0.52 | 71.5 | 0.216 | 75.5 | inactive |

Records listed so far marked active (1):
| target gene | reagent | total luciferase, z-score | total luciferase, % of control | luciferase per cell, z-score | viable cells, % of control | outcome |
| --- | --- | --- | --- | --- | --- | --- |
| PEX13 | 2 | 4.02 | 162 | 2.45 | 94.9 | active |
